Values from PubChem BioAssay AID1508588 (Peter MacCallum Cancer Centre, 2020).

- Purpose: 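Knock-downs boosting vemurafenib effects on melanoma cell growth or lactate release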 (primary screen)
- Cell system: human WM266.4 melanoma cells (BRAF V600 mutant)
- Reagents: siRNA pool against human genes, 40 nM
- Time to read-out: 96 h from transfection to read-out
- Conditions: vemurafenib 300 nM (about IC25), added 48 h after transfection, for 48 h; comparison arm got DMSO vehicle only
- Detection: 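Cell gain (DAPI nuclei at end minus before drug, mean of two replicates) and medium lactate by absorbance per cell, both as ratio to non-targeting siRNA, also grouped into fold-change classes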
- Scale: cell gain with vemurafenib: higher = more cell gain than with non-targeting siRNA; lactate per cell with vemurafenib: higher = more lactate made per cell
- Hit rule: 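Enhancement is called by pairing each knock-down's vehicle-arm and drug-arm fold-change classes for viability or glycolysis; which class combinations qualify is not given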
- Calls: active = enhances vemurafenib effect; inactive = no enhancement seen
Here is one part, drawn at random, of about 18,000 reagents. In the full data, 790 (4.4%) got an active call. 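Calls rest on a combination of fold-change classes in drug and vehicle arms, not all shown here.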

Target gene | cell gain with vemurafenib | lactate per cell with vemurafenib | Outcome
PGLYRP1 (peptidoglycan recognition protein 1) | 0.43 | 1.02 | inactive
APOL2 (apolipoprotein L2) | 0.97 | 0.33 | inactive
PF4 (platelet factor 4) | 0.23 | 0.78 | inactive
CD209 (CD209 molecule) | 0.65 | 0.66 | inactive
LRRC28 (leucine rich repeat containing 28) | 0.61 | 1.77 | inactive
SFT2D3 (SFT2 domain containing 3) | 0.68 | 0.68 | inactive
UCK2 (uridine-cytidine kinase 2) | -0.01 | 3.17 | inactive
LENG8 (leukocyte receptor cluster member 8) | 0.54 | 1.35 | inactive
TMEM63B (transmembrane protein 63B) | 0.39 | 0.66 | inactive
EMC3 (ER membrane protein complex subunit 3) | 0.24 | 0.58 | active
CNTLN (centlein) | 0.33 | 0.7 | active
OR51F2 (olfactory receptor family 51 subfamily F member 2) | 1.01 | 0.46 | inactive
MC1R (melanocortin 1 receptor) | 1 | 0.83 | inactive
INHBE (inhibin subunit beta E) | 0.23 | 0.6 | inactive
KIAA0232 | 0.32 | 1.4 | inactive
HCAR2 (hydroxycarboxylic acid receptor 2) | 0.28 | 1.88 | inactive
DCAF6 (DDB1 and CUL4 associated factor 6) | 0.46 | 1.01 | inactive
ZNF711 (ZFX family zinc finger ZNF711) | 0.53 | 0.7 | inactive
APTX (aprataxin) | 0.61 | 0.61 | active
EIF4E3 (eukaryotic translation initiation factor 4E family member 3) | 0.59 | 0.98 | inactive
WDR83 (WD repeat domain 83) | 0.14 | 2.65 | inactive
LMF1 (lipase maturation factor 1) | 0.75 | 0.32 | inactive
PIN1 (peptidylprolyl cis/trans isomerase, NIMA-interacting 1) | 0.54 | 1.82 | inactive
TMEM51 (transmembrane protein 51) | 0.49 | 1.18 | inactive

Records listed above marked active:
Target gene | cell gain with vemurafenib | lactate per cell with vemurafenib | Outcome
EMC3 (ER membrane protein complex subunit 3) | 0.24 | 0.58 | active
CNTLN (centlein) | 0.33 | 0.7 | active
APTX (aprataxin) | 0.61 | 0.61 | active

Continued:
Target gene | cell gain with vemurafenib | lactate per cell with vemurafenib | Outcome
PCDHGA9 (protocadherin gamma subfamily A, 9) | 0.48 | 1.65 | inactive
TGFBR2 (transforming growth factor beta receptor 2) | 0.46 | 0.76 | inactive
LEMD1 (LEM domain containing 1) | 0.77 | 0.58 | inactive
SH3BP1 (SH3 domain binding protein 1) | 0.62 | 0.96 | inactive
STK32C (serine/threonine kinase 32C) | 0.49 | 0.97 | inactive
COMMD1 (copper metabolism domain containing 1) | 0.54 | 0.8 | inactive
ERI2 (ERI1 exoribonuclease family member 2) | 0.8 | 0.87 | inactive
DIXDC1 (DIX domain containing 1) | 0.17 | 1.4 | inactive
CSMD2 (CUB and Sushi multiple domains 2) | 1.08 | 1.02 | inactive
PNLDC1 (PARN like ribonuclease domain containing exonuclease 1) | 0.45 | 1.46 | inactive
CCL5 (C-C motif chemokine ligand 5) | 0.69 | 0.94 | inactive
EMC2 (ER membrane protein complex subunit 2) | 0.62 | 0.58 | inactive
RBMY1E (RNA binding motif protein Y-linked family 1 member E) | 1.14 | 0.5 | inactive
GALNT5 (polypeptide N-acetylgalactosaminyltransferase 5) | 0.51 | 0.64 | inactive
C3 (complement C3) | 0.77 | 0.87 | inactive
CHLSN (cholesin) | 0.58 | 1.68 | inactive
SPHK1 (sphingosine kinase 1) | 0.3 | 0.98 | inactive
KCNT2 (potassium sodium-activated channel subfamily T member 2) | 0.57 | 0.91 | inactive
GSN (gelsolin) | 0.28 | 0.98 | inactive
SMYD4 (SET and MYND domain containing 4) | 0.58 | 0.51 | inactive
CALCOCO1 (calcium binding and coiled-coil domain 1) | 0.53 | 0.67 | inactive
EIF2B5 (eukaryotic translation initiation factor 2B subunit epsilon) | 0.76 | 0.75 | inactive
SULF1 (sulfatase 1) | 0.53 | 0.78 | inactive
OR6S1 (olfactory receptor family 6 subfamily S member 1) | 0.59 | 1.25 | inactive
SLC30A8 | 1 | 0.58 | inactive
PRRG4 (proline rich and Gla domain 4) | 0.61 | 0.38 | inactive
ZNF302 (zinc finger protein 302) | 0.86 | 0.28 | inactive
FLG (filaggrin) | -0.03 | 0.61 | inactive
FBXO22 (F-box protein 22) | 0.26 | 1.05 | inactive
ERBB2 (erb-b2 receptor tyrosine kinase 2) | 1.06 | 0.88 | inactive
GNAO1 (G protein subunit alpha o1) | 1.25 | 0.81 | inactive
ACRBP (acrosin binding protein) | 0.32 | 1.05 | inactive
CCR1 (C-C motif chemokine receptor 1) | 0.52 | 0.26 | active
